These results are taken from US20140093514A1.

The target of the assay is NY-ESO-1-His. Briefly: Western blot after gradient SDS-PAGE, 100 µg of protein, HRP goat anti-human IgG, exposure 1 min.

These are yes or no findings as the source states them, for the method shown.

B1: 21B4 (antibody, V domains shown)
VH: QVQLVESGGGVVQPGRSLRLSCTASGFRFRSHGMHWVRQAPGKGLEWVAVISYDGNNKLYADSVKGRITISRDNSKNTLFLQMNNVRAEDTAVYYCASPYTSDWQYFQYWGQGTLVIVSS
VL: EIVMTQSPATLSVSPGERATFSCRASQNISTTLAWYQQKPGQAPRLLIYDTSTRATGIPARFSGSGSGTEFTLTISSLQSEDLAVYYCQQSNSWPLTFGGGTKVEIK
B1: the binding result is on record as “no binding (tested: 1 µg/ml)”.
